Values are relative to the signal before dosing, not to a vehicle control; the signal also falls without drug.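 Labels refer to human fibroblasts, largely primary: uterine (C12385, HUF), lung (H6013), bone (Hs27A), adrenal (HADF), skin (WS1), plus mammary HMF and breast cancer-associated Hs343T. Cancer lines are basal-like or mesenchymal-like triple-negative breast cancer. The paper counts as hits responses shifting over 3x the replicate standard deviation. The tissue of the other fibroblasts is not given here.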
Tested on: MDAMB436
Assay: relative JC-1 red fluorescence (viability) vs pre-drug, coculture with fibroblast (fraction); higher = more viable cancer cells
Protocol: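 JC-1 labelled TNBC cells cocultured 1:1 (1,500 cells each) with CellTrace Violet stained primary or stromal fibroblasts in 384-well plates in FluoroBrite medium, treated with one of 42 anticancer drugs at 0.1, 1, 10 or 100 uM. JC-1 red fluorescence (mitochondrial integrity in cancer cells only) was read by plate reader every 8 h for 72 h. Values are normalised to each well's pre-drug value. The stock of one drug was tenfold lower, so its dose labels may be too high.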

CC[C@]1(O)C[C@H]2CN(CCc3c([nH]c4ccccc34)[C@@](C(=O)OC)(c3cc4c(cc3OC)N(C=O)[C@H]3[C@@](O)(C(=O)OC)[C@H](OC(C)=O)[C@]5(CC)C=CCN6CC[C@]43[C@@H]65)C2)C1 [Vincristine]
relative JC-1 red fluorescence
Conditions	8 h	16 h	24 h	32 h	40 h	48 h	56 h	64 h	72 h
10 µM, coculture fibroblast: C12385	0.79682	0.7746	0.7684	0.703	0.672	0.643	0.615	0.598	0.593
10 µM, coculture fibroblast: H6013	0.8167	0.7983	0.8022	0.817	0.808	0.859	0.84	0.845	0.825
10 µM, coculture fibroblast: H6019	0.793	0.7719	0.8001	0.769	0.771	0.783	0.778	0.788	0.798
10 µM, coculture fibroblast: H6076	0.714	0.6774	0.68	0.654	0.653	0.636	0.663	0.664	0.6718
10 µM, coculture fibroblast: H6231	0.744	0.625	0.649	0.5647	0.55354	0.517	0.515	0.5038	0.496
10 µM, coculture fibroblast: HADF	0.811	0.8088	0.796	0.774	0.765	0.786	0.721	0.71	0.671
10 µM, coculture fibroblast: HCFa	0.802	0.791	0.773	0.771	0.777	0.815	0.761	0.77	0.729
10 µM, coculture fibroblast: HCPF	0.702	0.658	0.653	0.59	0.585	0.552	0.538	0.5195	0.515
10 µM, coculture fibroblast: HHSteC	0.825	0.826	0.814	0.796	0.812	0.844	0.784	0.78	0.749
10 µM, coculture fibroblast: HMF	0.674	0.64	0.636	0.597	0.59	0.557	0.558	0.55	0.551
10 µM, coculture fibroblast: HPFa	0.916	0.867	0.86	0.824	0.831	0.849	0.783	0.769	0.728
10 µM, coculture fibroblast: HUF	0.854	0.809	0.804	0.742	0.691	0.663	0.638	0.639	0.631
10 µM, coculture fibroblast: Hs5	0.778	0.743	0.729	0.671	0.6472	0.6061	0.604	0.57	0.576
10 µM, coculture fibroblast: Hs27A	0.8715	0.831	0.837	0.839	0.833	0.915	0.832	0.831	0.765
10 µM, coculture fibroblast: Hs343T	0.721	0.675	0.644	0.608	0.585	0.536	0.542	0.533	0.5411
10 µM, coculture fibroblast: WS1	0.816	0.768	0.75	0.673	0.642	0.618	0.592	0.566	0.561
100 µM, coculture fibroblast: C12385	0.8441	0.8187	0.8312	0.785	0.765	0.7605	0.738	0.719	0.718
100 µM, coculture fibroblast: H6013	0.882	0.8564	0.84	0.866	0.865	0.897	0.8772	0.866	0.841
100 µM, coculture fibroblast: H6019	0.84	0.825	0.8362	0.822	0.83	0.84	0.827	0.824	0.823
100 µM, coculture fibroblast: H6076	0.792	0.737	0.712	0.6977	0.676	0.6504	0.666	0.6699	0.673
100 µM, coculture fibroblast: H6231	0.822	0.774	0.745	0.716	0.681	0.645	0.622	0.598	0.58
100 µM, coculture fibroblast: HADF	0.8673	0.8522	0.86386	0.8677	0.8647	0.873	0.835	0.826	0.784
100 µM, coculture fibroblast: HCFa	0.8512	0.8434	0.8333	0.835	0.8336	0.864	0.818	0.836	0.786
100 µM, coculture fibroblast: HCPF	0.8202	0.7868	0.771	0.725	0.701	0.676	0.645	0.63	0.624
100 µM, coculture fibroblast: HHSteC	0.8831	0.8806	0.8644	0.8618	0.868	0.896	0.834	0.832	0.792
100 µM, coculture fibroblast: HMF	0.862	0.846	0.832	0.8	0.786	0.752	0.731	0.702	0.684
100 µM, coculture fibroblast: HPFa	0.946	0.9433	0.94837	0.9425	0.959	0.832	0.931	0.927	0.879
100 µM, coculture fibroblast: HUF	0.9044	0.8635	0.8908	0.85055	0.8207	0.814	0.7884	0.7905	0.79962
100 µM, coculture fibroblast: Hs5	0.826	0.793	0.786	0.73	0.715	0.674	0.6715	0.6432	0.6326
100 µM, coculture fibroblast: Hs27A	0.864	0.8369	0.8304	0.825	0.822	0.866	0.801	0.797	0.742
100 µM, coculture fibroblast: Hs343T	0.85968	0.8075	0.7858	0.7451	0.713	0.6747	0.6492	0.632	0.629
100 µM, coculture fibroblast: WS1	0.8433	0.8037	0.808	0.753	0.736	0.735	0.715	0.693	0.681

Reference: the supplement of paper PMC6078165
